Two compounds from patent publication US5672470A, “Microbial process for detection of toxic substances” (priority 1994, dated 1997) can be followed below.

This series concerns bacteria phosphotransferase system (PTS) of E. coli mutant 1219bgl+. In kind it is cell-based. From the text: Since the phosphotransferase system for the bacterial cell is an essential transport system for the reception of extracellular carbohydrates, a possible inhibition or adverse effect of the participating enzymes should be noticed to cause a reduction in the carbohydrate transport, that is the PTS constitutes a potential possibility for the detection of toxic substances in microorganisms. […] Said analog is of such a nature that it, in phosphorylated form after the cell transport, can be hydrolyzed by an enzyme in the bacterial cell under the release of a substance susceptible to analysis. […] The released 2-nitrophenyl can then, by means of photometry, be quantitatively measured as phenolate-anion after a defined time span. […]
The E. coli cultures of the mutant 1219 bgl+, preserved at -20° C., are first thawed to be reactivated during 10 min. at room temperature. […] After a 2 minute centrifugation at 17,000×g the substrate transformations of the tested bacteria suspensions are photometrically determined at 405 nm.
The evaluation of the PTS test with ONP-glycosides is done by means of the toxicological characteristic quantity of the "efficient concentration", (the EC value). […] The percentage of adverse effect of the parameter to be measured is indicated by the attached index. […]

Consider `[Hg+2]` [Hg^2+], for which the “factor by which test is more sensitive in HEPES buffer instead of phosphate buffer” value (inhibition through supply of the metal ion) is on record as 50.
For `Cc1ccccc1` [Toluene, toluene], the “factor by which EC10 is below the corresponding value for chloroform” value (EC10 in ppm, phosphate buffer pH 6.5) was around 50.
